According to PubChem BioAssay AID504327 (National Center for Advancing Translational Sciences (NCATS), 2011):
Screen size: about 390,000 compounds; about 820 (0.21%) were called active. Inconclusive results, whose numbers are uncertain, are shown with a selection of clear calls. Calls follow the shape of the dose curve; as a rule, active = well fitted inhibition curve with a large enough effect; inconclusive = small, poorly fitted or top-dose-only effect, or another doubt; inactive = no such curve, though single readings can be large or run the other way. Where the call is inconclusive, the potency comes from a doubtful curve fit.

By UniProt entry, the sequences of proteins in these tests, tags left out.
UniProt Q92830, whole entry, looked up: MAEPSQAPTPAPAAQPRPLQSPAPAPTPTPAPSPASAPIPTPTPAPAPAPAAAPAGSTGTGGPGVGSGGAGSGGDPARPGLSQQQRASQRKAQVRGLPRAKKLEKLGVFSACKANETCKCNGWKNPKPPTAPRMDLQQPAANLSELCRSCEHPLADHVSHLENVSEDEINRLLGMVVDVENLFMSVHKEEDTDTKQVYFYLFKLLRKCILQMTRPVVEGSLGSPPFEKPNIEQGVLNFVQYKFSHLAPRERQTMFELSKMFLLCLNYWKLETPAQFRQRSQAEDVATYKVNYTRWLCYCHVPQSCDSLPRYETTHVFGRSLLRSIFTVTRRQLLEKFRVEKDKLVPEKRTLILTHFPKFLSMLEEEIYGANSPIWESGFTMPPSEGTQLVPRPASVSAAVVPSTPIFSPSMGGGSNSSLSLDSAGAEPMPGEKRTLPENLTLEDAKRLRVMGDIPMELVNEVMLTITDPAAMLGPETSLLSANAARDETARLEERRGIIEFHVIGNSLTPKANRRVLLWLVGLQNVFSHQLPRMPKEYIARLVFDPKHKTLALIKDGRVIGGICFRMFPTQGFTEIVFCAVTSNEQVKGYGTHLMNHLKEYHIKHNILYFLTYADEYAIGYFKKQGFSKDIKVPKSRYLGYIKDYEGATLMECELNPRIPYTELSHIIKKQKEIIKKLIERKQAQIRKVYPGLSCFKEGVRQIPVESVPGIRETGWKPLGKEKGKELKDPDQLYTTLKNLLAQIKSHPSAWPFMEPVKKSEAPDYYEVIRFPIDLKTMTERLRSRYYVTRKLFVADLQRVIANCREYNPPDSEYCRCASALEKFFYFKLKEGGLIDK

Molecular target: Histone acetyltransferase KAT2A (Homo sapiens) (UniProt Q92830)
Assay: qHTS Assay for Inhibitors of GCN5L2
Conditions: GCN5L2 HAT assay, ThioGlo1 CoA-SH fluorescence; series mostly up to 58.9 µM
Summary of the method: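 ThioGlo1-coupled HAT assay: 20nM GCN5L2, 70uM acetyl-CoA, 75uM H3(1-25) peptide, pH 7.5. Fluorescence read at 340/540nm at start and after 20 min at room temperature.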
Potency is read from the fitted curve at half-maximal effect.

SMILES | Potency
NC(=S)N/N=C/c1ccc2cccc(OCc3ccccc3)c2n1 | inconclusive: 31.6 µM [inhibitor, single point]
CCOC(=O)c1ccc(N=c2ssnc2Cl)cc1 | active: 12.6 µM
CNCc1ccccc1Sc1ccc(OC)cc1 | inconclusive: 25.1 µM [inhibitor, partial curve]
CCN(CC)S(=O)(=O)c1cccc(C(=O)Nc2cc(C)cc(C)c2)c1 | inactive
Cc1cccc(NC(=O)c2c(NC(=O)c3ccccc3)sc3c2CCCC3)c1 | inconclusive: 39.8 µM [inhibitor, single point]
O=C1/C(=C\c2ccc(O)cc2)SC(=S)N1/N=C/c1ccc(O)cc1 | inconclusive: 0.447 µM [inhibitor, partial curve, poor fit]
COc1ccc(CCNC(=O)c2ccc(N3CCCCS3(=O)=O)cc2)cc1OC | inactive
Cc1csc(SC(C)C(=O)Nc2ccc3c(c2)OCCO3)n1 (stereo unspecified) | inconclusive: 39.8 µM [inhibitor, single point]
COc1ccccc1CCNC(=O)Cc1c(C)c2cc3c(C(C)(C)C)coc3c(C)c2oc1=O | inactive
Cc1nc2ccccc2c(=O)n1/N=C/c1cc(Br)ccc1O | inconclusive: 8.91 µM [inhibitor, single point]
C[n+]1cccc2cccc([O-])c21 | inconclusive: 35.5 µM [inhibitor, single point]
Cc1ccc(S(=O)(=O)CCC(=O)N2CCN(c3ccc(Cl)cc3)CC2)cc1 | inactive
Oc1ccccc1/C=N/Nc1nc2ccccc2o1 | inactive
O=C(Nc1ccc(N2C(=O)CCC2=O)cc1Cl)c1cccs1 | inconclusive: 8.91 µM [inhibitor, single point]
N#CCCCCn1c(-c2cncs2)nc2ccccc21 | inconclusive: 1 µM [inhibitor, single point]
CC1=CC(C)[C@H](/C=N/n2c(=O)[nH]c3c([nH]c4ccc(C)cc43)c2=O)C(C)C1 (stereo partly specified) | inactive
CC(=C/c1ccco1)/C=N/NC(=O)c1ccncc1 | inconclusive: 39.8 µM [inhibitor, single point]
COc1ccc(OC)c(/C=C/C(=O)N(C)CC(=O)Nc2cc(C)ccc2C)c1 | inconclusive: 25.1 µM [inhibitor, single point]
COc1ccc(S(=O)(=O)NCC2CCC(C(=O)NCc3ccco3)CC2)cc1 (stereo unspecified) | inactive
O=C(Nc1cccc2cccnc12)c1cccc2ccccc12 | inconclusive: 39.8 µM [inhibitor, single point]
CCOc1ccc(-c2cn3c(n2)sc2cc(C(=O)NCCCN(CC)CC)ccc23)cc1 | inactive

Retrieved by compound from the entries so far:
SMILES | Potency
COc1ccc(S(=O)(=O)NCC2CCC(C(=O)NCc3ccco3)CC2)cc1 (stereo unspecified) | inactive
O=C(Nc1ccc(N2C(=O)CCC2=O)cc1Cl)c1cccs1 | inconclusive: 8.91 µM [inhibitor, single point]
